The target in assay [1] is recombinant human Notch-1/Fc Chimera (R&D Systems Cat No 3647-TK) (human) (UniProt P46531). In words: ELISA: rhNotch-1/hFc coated at 5 ug/mL, 0.3 ug/mL biotinylated rrJagged-1 without competitor, detection by streptavidin-PO, OD 490 nm.
Assay [2] shares this target. In words: competition ELISA on coated rhNotch-1/hFc, competitor of biot-Jagged-1 (legend of FIG. 3).
Assay [3] shares this target. The assay is described as follows: competition ELISA: rhDLL4 coated at 5 ug/mL, series of non-biotinylated Jagged-1 mixed with 0.2 ug/mL rhNotch-1/hFc, detection by anti-hFc-HRP, OD 490 nm; competitor: coated DLL4.
Assay [4] has the same target. The assay is described as follows: competition ELISA: rhNotch-1/hFc coated at 5 ug/mL, series of non-biotinylated Jagged-1 mixed with 0.3 ug/mL biotinylated rrJagged-1 (the competitor), detection by streptavidin-PO, OD 490 nm.

By UniProt entry, the sequences of proteins in these tests, tags left out. Where a name states a change or a piece, a line headed by the entry shows the natural chain unless it says otherwise. Residues count along the entry.
UniProt P46531, residues 19-526: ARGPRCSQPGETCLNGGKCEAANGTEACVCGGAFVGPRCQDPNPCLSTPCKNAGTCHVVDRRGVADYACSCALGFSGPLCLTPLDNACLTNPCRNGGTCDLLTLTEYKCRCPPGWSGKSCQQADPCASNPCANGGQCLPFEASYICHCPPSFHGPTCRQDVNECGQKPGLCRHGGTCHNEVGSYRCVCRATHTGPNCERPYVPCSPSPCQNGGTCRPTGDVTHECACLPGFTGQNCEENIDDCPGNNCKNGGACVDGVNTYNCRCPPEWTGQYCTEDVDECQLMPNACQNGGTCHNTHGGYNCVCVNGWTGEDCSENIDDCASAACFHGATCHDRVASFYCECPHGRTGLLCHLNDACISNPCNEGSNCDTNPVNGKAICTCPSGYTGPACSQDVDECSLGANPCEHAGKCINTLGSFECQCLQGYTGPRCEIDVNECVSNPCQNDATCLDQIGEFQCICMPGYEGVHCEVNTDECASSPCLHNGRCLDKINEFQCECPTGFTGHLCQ
UniProt Q63722, residues 34-1067: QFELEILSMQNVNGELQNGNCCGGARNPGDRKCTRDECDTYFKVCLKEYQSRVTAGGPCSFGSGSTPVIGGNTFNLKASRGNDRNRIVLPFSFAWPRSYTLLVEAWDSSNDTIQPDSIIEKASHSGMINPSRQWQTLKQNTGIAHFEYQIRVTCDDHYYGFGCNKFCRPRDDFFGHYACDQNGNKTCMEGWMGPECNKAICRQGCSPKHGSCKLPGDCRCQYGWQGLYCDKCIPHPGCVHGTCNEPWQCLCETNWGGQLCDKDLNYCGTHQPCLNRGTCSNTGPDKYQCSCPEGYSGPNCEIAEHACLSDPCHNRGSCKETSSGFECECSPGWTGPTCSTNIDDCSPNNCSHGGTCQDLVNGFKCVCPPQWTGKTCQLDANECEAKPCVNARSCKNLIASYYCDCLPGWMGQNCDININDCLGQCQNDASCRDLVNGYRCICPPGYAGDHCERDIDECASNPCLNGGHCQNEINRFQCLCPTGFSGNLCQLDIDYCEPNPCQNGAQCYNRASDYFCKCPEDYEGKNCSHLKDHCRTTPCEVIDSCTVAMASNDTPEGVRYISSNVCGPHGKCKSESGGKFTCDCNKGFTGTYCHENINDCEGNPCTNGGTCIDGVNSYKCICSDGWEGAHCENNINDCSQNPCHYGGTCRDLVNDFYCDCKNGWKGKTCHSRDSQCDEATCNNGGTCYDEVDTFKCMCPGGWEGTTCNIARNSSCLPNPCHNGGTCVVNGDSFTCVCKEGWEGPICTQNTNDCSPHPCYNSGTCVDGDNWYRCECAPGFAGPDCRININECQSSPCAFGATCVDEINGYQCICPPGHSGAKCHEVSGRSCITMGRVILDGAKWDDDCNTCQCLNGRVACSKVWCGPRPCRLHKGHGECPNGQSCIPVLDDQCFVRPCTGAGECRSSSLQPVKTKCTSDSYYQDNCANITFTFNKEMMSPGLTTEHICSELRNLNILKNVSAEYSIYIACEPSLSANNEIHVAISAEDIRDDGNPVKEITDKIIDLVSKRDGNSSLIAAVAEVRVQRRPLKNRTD

No constants are given. Whether binding was seen depends on the method and setting. Some results given as binding are weak or reduced against the parent protein; the word gives no strength.

Consider “biotinylated rrJagged-1 (from UniProt Q63722 34-1067) (ligand)”, for which, in assay [1], the binding entry is “binds”.

Regarding “rat Jagged-1 (rrJagged-1, R&D Systems Cat #599-JG) (from UniProt Q63722 34-1067) (ligand)”, the binding result in assay [2], in assay [3] and in assay [4] was “binds” in each case.

Values taken from patent publication US20110105733A1 (Ablynx, published 2011).
